No constants are given. Whether binding was seen depends on the method and setting. Binding seen in cells or lysates may run through a third protein. Some binding calls cover weakened binding; strength is not graded here.
Target: polycytosine (poly(C)) binding protein 1 (PCBP1) (human (endogenous in A549 and HeLa)) (UniProt Q15365)
Test: co-IP; anti-PCBP1 antibody on protein A Sepharose, endogenous proteins of A549 and HeLa lysates, immunoblot; HeLa lysates also treated with RNAse A, DNAse I or both

Protein sequences, listed by entry. Tags and fused reporters are not part of them.
UniProt Q15365: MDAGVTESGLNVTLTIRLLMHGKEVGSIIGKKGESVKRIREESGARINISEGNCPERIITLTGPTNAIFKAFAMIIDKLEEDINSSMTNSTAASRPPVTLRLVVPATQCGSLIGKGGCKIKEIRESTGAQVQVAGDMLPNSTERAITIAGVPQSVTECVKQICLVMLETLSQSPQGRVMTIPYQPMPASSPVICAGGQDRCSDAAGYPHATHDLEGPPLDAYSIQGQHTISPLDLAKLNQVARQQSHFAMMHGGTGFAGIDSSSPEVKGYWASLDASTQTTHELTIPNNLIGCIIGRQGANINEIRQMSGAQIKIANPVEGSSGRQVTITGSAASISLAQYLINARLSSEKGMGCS

binding: binds
B1: DDX21, human (protein, UniProt Q9NR30 1-783)
chain: MPGKLRSDAGLESDTAMKKGETLRKQTEEKEKKEKPKSDKTEEIAEEEETVFPKAKQVKKKAEPSEVDMNSPKSKKAKKKEEPSQNDISPKTKSLRKKKEPIEKKVVSSKTKKVTKNEEPSEEEIDAPKPKKMKKEKEMNGETREKSPKLKNGFPHPEPDCNPSEAASEESNSEIEQEIPVEQKEGAFSNFPISEETIKLLKGRGVTFLFPIQAKTFHHVYSGKDLIAQARTGTGKTFSFAIPLIEKLHGELQDRKRGRAPQVLVLAPTRELANQVSKDFSDITKKLSVACFYGGTPYGGQFERMRNGIDILVGTPGRIKDHIQNGKLDLTKLKHVVLDEVDQMLDMGFADQVEEILSVAYKKDSEDNPQTLLFSATCPHWVFNVAKKYMKSTYEQVDLIGKKTQKTAITVEHLAIKCHWTQRAAVIGDVIRVYSGHQGRTIIFCETKKEAQELSQNSAIKQDAQSLHGDIPQKQREITLKGFRNGSFGVLVATNVAARGLDIPEVDLVIQSSPPKDVESYIHRSGRTGRAGRTGVCICFYQHKEEYQLVQVEQKAGIKFKRIGVPSATEIIKASSKDAIRLLDSVPPTAISHFKQSAEKLIEEKGAVEALAAALAHISGATSVDQRSLINSNVGFVTMILQCSIEMPNISYAWKELKEQLGEEIDSKVKGMVFLKGKLGVCFDVPTASVTEIQEKWHDSRRWQLSVATEQPELEGPREGYGGFRGQREGSRGFRGQRDGNRRFRGQREGSRGPRGQRSGGGNKSNRSQNKGQKRSFSKAFGQ

Reference: paper PMC11538862
